Measurements taken from PMC7819943, “Rice protein-binding microarrays: a tool to detect cis-acting elements near promoter regions in rice”.
This is one part of the list.

Target: T1, OsSMF1 (Oryza sativa, UniProt Q6ZLB0 1-436)
T1 sequence: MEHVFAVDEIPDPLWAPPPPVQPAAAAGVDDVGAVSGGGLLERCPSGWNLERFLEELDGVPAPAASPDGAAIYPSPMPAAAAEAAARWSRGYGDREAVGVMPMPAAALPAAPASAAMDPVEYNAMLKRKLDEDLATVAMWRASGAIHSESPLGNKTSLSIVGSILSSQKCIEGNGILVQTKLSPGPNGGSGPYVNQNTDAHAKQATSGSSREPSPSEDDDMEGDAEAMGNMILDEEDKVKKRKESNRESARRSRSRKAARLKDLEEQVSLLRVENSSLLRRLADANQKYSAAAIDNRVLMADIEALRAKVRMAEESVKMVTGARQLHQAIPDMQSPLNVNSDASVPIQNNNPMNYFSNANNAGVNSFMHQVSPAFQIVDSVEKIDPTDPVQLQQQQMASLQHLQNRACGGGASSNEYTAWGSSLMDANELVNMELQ
Assay: protein-binding microarray (RPBM); PBS, 2% BSA, 51.3 ng/ul salmon testes DNA, 50 uM zinc acetate, 200 nM TF, 25 C, 1 h; high values mean tight binding
Conditions: protein: recombinant; tags: N-terminal polyhistidine and DsRed monomer fusion (pET32a); chain copies: 2; label: CyDye5-dUTP incorporated in the synthesized complementary strand; 3' TTTTT single-stranded linker to array surface; dsDNA, one strand shown
Method in brief: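 Binding signal here means per-feature fluorescence intensity in arbitrary units. The values were read on an Axon 4000B scanner after a custom Agilent array, double-stranded by primer extension with Cy5-dUTP, was incubated with 200 nM protein at 25 °C for 1 h in PBS with 2% BSA, salmon testes DNA and 50 µM zinc acetate, then washed. The proteins were transcription factors with an N-terminal polyhistidine tag and DsRed, expressed in E. coli BL21-CodonPlus and purified on Ni–NTA.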

Row | Sequence | binding signal
1 | TGAGCCCCACTGTGCTCACCTAACCCATACACGCGGAGCACGGAGTCACCTAGTGCAG | 3890 fluorescence intensity (a.u.)
2 | CCGTGGACCAGCGCCAACCCTCGCCACCGCACGTCGCCGGCGGAGTCACCTAGTGCAG | 27800 fluorescence intensity (a.u.)
3 | GATCGCATGGCATTACGACAAACCATGACCACATGGATGACGGAGTCACCTAGTGCAG | 3280 fluorescence intensity (a.u.)
4 | ACAACGAGAATGGCAACGTCAGAGACCTCAAACACCACGGCGGAGTCACCTAGTGCAG | 4300 fluorescence intensity (a.u.)
5 | TGCCGTCTTCCTCGTCTCCGGTGACTCTTCGCCGCCGGATCGGAGTCACCTAGTGCAG | 3660 fluorescence intensity (a.u.)
6 | CAAACGGGTGTATGGTGTGTATTCTTCTCCTCCAAAGTTGCGGAGTCACCTAGTGCAG | 3580 fluorescence intensity (a.u.)
7 | GTCTCCGCCATCCGCCCGTCCGCCTCTCCGTTCGACCTCGCGGAGTCACCTAGTGCAG | 4910 fluorescence intensity (a.u.)
8 | CGAATAAGCCCTTAATGTGTACGTTATTTGGTTTATCCACCGGAGTCACCTAGTGCAG | 3240 fluorescence intensity (a.u.)
9 | CCCCACATGTCAGTGACGCGGCGCACAAGGTCAAAGCCTACGGAGTCACCTAGTGCAG | 4820 fluorescence intensity (a.u.)
10 | CACACCTGACACAACACTTACACATCATACCAGAAGAAAACGGAGTCACCTAGTGCAG | 3210 fluorescence intensity (a.u.)
11 | ACTATTTTACGTCCCCACATTTCCAACCATTCGCCGCCGCCGGAGTCACCTAGTGCAG | 12900 fluorescence intensity (a.u.)
12 | TGTTCCCATCCATCAGCAGCGAACACACCCTATGTCCCTACGGAGTCACCTAGTGCAG | 3170 fluorescence intensity (a.u.)
13 | CTTAGCCGGCTATACGCGGCTACGTTGGCTGACTTGGTAGCGGAGTCACCTAGTGCAG | 4170 fluorescence intensity (a.u.)
14 | TGCGTTTGGAGAGGTGACTCCAAGATGGTGGTCGGCGTGGCGGAGTCACCTAGTGCAG | 3390 fluorescence intensity (a.u.)
15 | GTCCGGGGCAGCCAGATCCAGCGCCACCTCACCCATGGCACGGAGTCACCTAGTGCAG | 7320 fluorescence intensity (a.u.)
16 | TCCGGGTCCGGTGACGCGGCGGCACAGTACCAGGAGAGGACGGAGTCACCTAGTGCAG | 5160 fluorescence intensity (a.u.)
17 | GTCCTACGCCTATGCAGCGGAGAGGCATGCTCGCGTGTACCGGAGTCACCTAGTGCAG | 3960 fluorescence intensity (a.u.)
18 | TTCTTCCACGCCCCGCATCGCCGCCGCCGCCGGAGAGGGACGGAGTCACCTAGTGCAG | 3520 fluorescence intensity (a.u.)
19 | GGCCTCAGCAAGCGACACGTCCGTGTCACACGCACGCACGCGGAGTCACCTAGTGCAG | 7470 fluorescence intensity (a.u.)
20 | CCGGATGGCTTAGTCATCCAGTTGGAGAGGCTATTGGAGCCGGAGTCACCTAGTGCAG | 6160 fluorescence intensity (a.u.)
21 | GCTAGGTAACGTACCATTGACAACAAGACACTCGTGGTGACGGAGTCACCTAGTGCAG | 4540 fluorescence intensity (a.u.)

From entry 14 as far as 17, as listed above:
Row | Sequence | binding signal
14 | TGCGTTTGGAGAGGTGACTCCAAGATGGTGGTCGGCGTGGCGGAGTCACCTAGTGCAG | 3390 fluorescence intensity (a.u.)
15 | GTCCGGGGCAGCCAGATCCAGCGCCACCTCACCCATGGCACGGAGTCACCTAGTGCAG | 7320 fluorescence intensity (a.u.)
16 | TCCGGGTCCGGTGACGCGGCGGCACAGTACCAGGAGAGGACGGAGTCACCTAGTGCAG | 5160 fluorescence intensity (a.u.)
17 | GTCCTACGCCTATGCAGCGGAGAGGCATGCTCGCGTGTACCGGAGTCACCTAGTGCAG | 3960 fluorescence intensity (a.u.)

(cont.)

Row | Sequence | binding signal
22 | CTGAAAGTCTGAGATGTGCCACGCCTCTTTTCTTCTGTCCCGGAGTCACCTAGTGCAG | 3460 fluorescence intensity (a.u.)
23 | TGTTCTAACGAATTTCAGGCAACACGTGCGAAACAAACCACGGAGTCACCTAGTGCAG | 3610 fluorescence intensity (a.u.)
24 | TTGATTGGTCACCATCAGCATAGCTACATGTAAGGAGCTACGGAGTCACCTAGTGCAG | 3220 fluorescence intensity (a.u.)
25 | GATTTTGCATGCATCATGCATGGCCTGGCATTGTACCCTTCGGAGTCACCTAGTGCAG | 4170 fluorescence intensity (a.u.)
26 | CTCCCCGGCTTCTCTTCGCCGGCGACGACGATGCGGTGCGCGGAGTCACCTAGTGCAG | 3340 fluorescence intensity (a.u.)
27 | AAAACACATCATGGCCATGTTTGGTTCCATGGGCTAATTACGGAGTCACCTAGTGCAG | 3280 fluorescence intensity (a.u.)
28 | CGGCACAAGGAGTGGCAGCCACCCAGAGGCGCCCACCCTTCGGAGTCACCTAGTGCAG | 3820 fluorescence intensity (a.u.)
29 | CCTACCTTTCTATTCAAAAGAGAAAAGAAACAATGTTATCCGGAGTCACCTAGTGCAG | 9550 fluorescence intensity (a.u.)
30 | GGGTGTACTGTCCGCTGATGCTCGTGGGAGGCGGCGGCGGCGGAGTCACCTAGTGCAG | 3470 fluorescence intensity (a.u.)
31 | GTCTCATGTATCATCAACTTTCGATAAGTGGTTGCCTCTTCGGAGTCACCTAGTGCAG | 3620 fluorescence intensity (a.u.)
32 | TGAAATAATGCCAATGGTTGTCACTGCGTGACTTGTGAGACGGAGTCACCTAGTGCAG | 3500 fluorescence intensity (a.u.)
33 | GCCAGCCTCCTCCTGCCACGTCGGTTCGCGTGCGCCACGGCGGAGTCACCTAGTGCAG | 13000 fluorescence intensity (a.u.)
34 | TCTTCCCGACGTGGACCACCGCGCTCGCCGCGGTCACCGGCGGAGTCACCTAGTGCAG | 4060 fluorescence intensity (a.u.)
35 | TATGCTGATTCAGATTGCTTGTGTTTGTCATTTTCCTCGTCGGAGTCACCTAGTGCAG | 5640 fluorescence intensity (a.u.)
36 | GAGAGCGAGGGGTTGGTGGTGGTGTAGGGTTTTAGTTTACCGGAGTCACCTAGTGCAG | 4230 fluorescence intensity (a.u.)
37 | AGCTCGGGCTGACGTGTCGTGACGCGGGAGCGTCCACGCCCGGAGTCACCTAGTGCAG | 23300 fluorescence intensity (a.u.)
38 | ACGGGGATGACTCCGATGACTCTCCTGGCCTCGCCGCCTCCGGAGTCACCTAGTGCAG | 5110 fluorescence intensity (a.u.)
39 | CTCAGTTTTACGTGTACCTAGCTATATACGTAATGTGCCACGGAGTCACCTAGTGCAG | 5690 fluorescence intensity (a.u.)
40 | CTTCTGTTTACTAATTGGATTCTCTGTGTGAACTCTTACGCGGAGTCACCTAGTGCAG | 3150 fluorescence intensity (a.u.)
41 | TGAGCTCACACGTAGTACTCTACTACGGCTAAAATTCAATCGGAGTCACCTAGTGCAG | 3290 fluorescence intensity (a.u.)
42 | CATGCGTGATAATCGTGCGGTTTCTTAAACCTGTTGTTCGCGGAGTCACCTAGTGCAG | 3160 fluorescence intensity (a.u.)
